Paper PMC10795372

Protein sequences, listed by entry. Tags and fused reporters are not part of them.
UniProt Q944A7: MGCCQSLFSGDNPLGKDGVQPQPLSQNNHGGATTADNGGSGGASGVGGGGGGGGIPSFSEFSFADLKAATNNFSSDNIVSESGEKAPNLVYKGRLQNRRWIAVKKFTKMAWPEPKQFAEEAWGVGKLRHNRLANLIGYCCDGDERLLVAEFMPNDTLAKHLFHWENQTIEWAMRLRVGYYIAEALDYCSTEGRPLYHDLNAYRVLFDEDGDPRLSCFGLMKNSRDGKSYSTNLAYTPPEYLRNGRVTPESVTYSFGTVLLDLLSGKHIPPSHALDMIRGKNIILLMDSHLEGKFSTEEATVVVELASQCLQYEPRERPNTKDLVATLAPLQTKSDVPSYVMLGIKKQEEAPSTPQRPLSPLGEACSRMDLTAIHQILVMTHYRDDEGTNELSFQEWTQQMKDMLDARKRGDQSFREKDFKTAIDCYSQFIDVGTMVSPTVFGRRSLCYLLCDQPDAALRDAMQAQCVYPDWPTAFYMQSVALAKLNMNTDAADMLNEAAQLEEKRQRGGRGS
UniProt Q9FHD7: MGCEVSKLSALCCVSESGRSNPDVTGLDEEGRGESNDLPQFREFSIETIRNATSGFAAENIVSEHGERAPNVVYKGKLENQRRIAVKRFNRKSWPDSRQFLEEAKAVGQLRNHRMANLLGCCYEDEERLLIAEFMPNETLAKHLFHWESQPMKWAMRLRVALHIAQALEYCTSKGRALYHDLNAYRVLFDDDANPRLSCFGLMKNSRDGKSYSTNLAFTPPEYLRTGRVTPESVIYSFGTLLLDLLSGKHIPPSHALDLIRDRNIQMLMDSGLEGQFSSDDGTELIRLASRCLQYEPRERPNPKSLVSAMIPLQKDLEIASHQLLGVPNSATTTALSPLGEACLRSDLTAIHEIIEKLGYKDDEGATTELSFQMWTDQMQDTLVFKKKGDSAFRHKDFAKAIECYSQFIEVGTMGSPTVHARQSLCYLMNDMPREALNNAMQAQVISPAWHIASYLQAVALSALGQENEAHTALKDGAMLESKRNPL

B1: AT1G53430 (protein, UniProt C0LGG8 29-1038)
chain: QLLPEDEVQTLRTIFRKLQNQTVNIERTSCSDQNWNFVVESASNSPTSNITCDCTFNASSVCRVTNIQLKSFSLPGIFPPEFGNLTRLREIDLSRNFLNGTIPTTLSQIPLEILSVIGNRLSGPFPPQLGDITTLTDVNLETNLFTGPLPRNLGNLRSLKELLLSANNFTGQIPESLSNLKNLTEFRIDGNSLSGKIPDFIGNWTLLERLDLQGTSMEGPIPPSISNLTNLTELRITDLRGQAAFSFPDLRNLMKMKRLVLRNCLIRGPIPEYIGSMSELKTLDLSSNMLTGVIPDTFRNLDAFNFMFLNNNSLTGPVPQFIINSKENLDLSDNNFTQPPTLSCNQLDVNLISSYPSVTDNSVQWCLREGLPCPEDAKQSSLFINCGGSRLKIGKDTYTDDLNSRGQSTFSSVSERWGYSSSGVWLGKEDAGYLATDRFNLINGSTPEYYKTARLSPQSLKYYGLCLRRGSYKLQLHFAEIMFSNDQTFNSLGRRIFDIYVQGNLLERDFNIAERAGGVGKPFIRQIDGVQVNGSTLEIHLQWTGKGTNVIPTRGVYGPLISAITITPNFKVDTGKPLSNGAVAGIVIAACAVFGLLVLVILRLTGYLGGKEVDENEELRGLDLQTGSFTLKQIKRATNNFDPENKIGEGGFGPVYKGVLADGMTIAVKQLSSKSKQGNREFVTEIGMISALQHPNLVKLYGCCIEGKELLLVYEYLENNSLARALFGTEKQRLHLDWSTRNKICIGIAKGLAYLHEESRLKIVHRDIKATNVLLDLSLNAKISDFGLAKLNDDENTHISTRIAGTIGYMAPEYAMRGYLTDKADVYSFGVVCLEIVSGKSNTNYRPKEEFVYLLDWAYVLQEQGSLLELVDPDLGTSFSKKEAMRMLNIALLCTNPSPTLRPPMSSVVSMLEGKIKVQPPLVKREADPSGSAAMRFKALELLSQDSESQVSTYARNREQDISSSSMDGPWVDSSFSEPGKDVSLQQQEEGRSSSSSRKLLDDLTDVKIE

Legend:
[1] = molecular target: T1, AT5G58150-GFP (Arabidopsis thaliana) (UniProt Q9LVN2); assay: affinity purification with mass spectrometry; GFP-Trap_A immunoprecipitation from 8-day-old 35S::AT5G58150-GFP seedlings fixed with 1% formaldehyde; lysis buffer 20 mM Tris HCl pH 7.5, 150 mM NaCl, 2 mM EDTA, 0.5% NP-40; on-bead digest, LC-MS/MS; 35S::GFP line as control
T1 sequence: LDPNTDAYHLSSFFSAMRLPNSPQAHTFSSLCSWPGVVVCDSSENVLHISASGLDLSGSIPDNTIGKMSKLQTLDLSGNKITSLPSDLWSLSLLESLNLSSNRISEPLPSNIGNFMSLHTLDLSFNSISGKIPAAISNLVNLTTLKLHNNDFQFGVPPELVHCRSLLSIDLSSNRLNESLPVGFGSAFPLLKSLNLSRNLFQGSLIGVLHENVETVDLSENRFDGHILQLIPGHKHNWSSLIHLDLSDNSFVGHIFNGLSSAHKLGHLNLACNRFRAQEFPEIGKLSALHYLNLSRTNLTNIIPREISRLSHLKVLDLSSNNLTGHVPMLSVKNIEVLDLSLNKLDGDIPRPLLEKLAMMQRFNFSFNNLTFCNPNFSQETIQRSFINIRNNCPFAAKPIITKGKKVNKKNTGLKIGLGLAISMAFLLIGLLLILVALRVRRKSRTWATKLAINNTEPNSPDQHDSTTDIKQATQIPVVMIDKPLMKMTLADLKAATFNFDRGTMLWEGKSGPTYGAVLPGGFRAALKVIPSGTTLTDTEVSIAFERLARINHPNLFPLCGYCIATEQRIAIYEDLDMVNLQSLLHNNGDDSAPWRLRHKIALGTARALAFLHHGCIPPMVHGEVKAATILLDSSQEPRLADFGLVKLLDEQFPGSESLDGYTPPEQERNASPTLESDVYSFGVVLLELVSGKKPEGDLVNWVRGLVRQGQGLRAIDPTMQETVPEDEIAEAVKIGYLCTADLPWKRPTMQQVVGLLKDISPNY

[2] = molecular target: T1, AT5G58150-GFP (Arabidopsis thaliana); assay: as above; remark: listed apart in the source

Molecule	binding [1]	binding [2]
HA2	binds	
BSK1 (Brassinosteroid-Signalling Kinase) (from UniProt Q944A7 1-512)	binds	
BSK8 (Brassinosteroid-Signalling Kinase) (from UniProt Q9FHD7 1-487)	binds	
HA1	binds	
HA3	binds	
AT1G51805	binds	
B1		binds

Like-named read-outs stand apart in the source and are kept apart here. No constants are given. Whether binding was seen depends on the method and setting. Binding seen in cells or lysates may run through a third protein. A yes stands for co-enrichment or nearness to the bait. Other partners may have been found. Where a sequence is shown, tags or fusion partners need not be part of it.
